{
  "sequences": {"note": "Chains of the proteins cited; added tags and fusions are not shown. Lines headed by an entry give the natural chain unless they say otherwise; changes in a name come on top.", "UniProt O43592": "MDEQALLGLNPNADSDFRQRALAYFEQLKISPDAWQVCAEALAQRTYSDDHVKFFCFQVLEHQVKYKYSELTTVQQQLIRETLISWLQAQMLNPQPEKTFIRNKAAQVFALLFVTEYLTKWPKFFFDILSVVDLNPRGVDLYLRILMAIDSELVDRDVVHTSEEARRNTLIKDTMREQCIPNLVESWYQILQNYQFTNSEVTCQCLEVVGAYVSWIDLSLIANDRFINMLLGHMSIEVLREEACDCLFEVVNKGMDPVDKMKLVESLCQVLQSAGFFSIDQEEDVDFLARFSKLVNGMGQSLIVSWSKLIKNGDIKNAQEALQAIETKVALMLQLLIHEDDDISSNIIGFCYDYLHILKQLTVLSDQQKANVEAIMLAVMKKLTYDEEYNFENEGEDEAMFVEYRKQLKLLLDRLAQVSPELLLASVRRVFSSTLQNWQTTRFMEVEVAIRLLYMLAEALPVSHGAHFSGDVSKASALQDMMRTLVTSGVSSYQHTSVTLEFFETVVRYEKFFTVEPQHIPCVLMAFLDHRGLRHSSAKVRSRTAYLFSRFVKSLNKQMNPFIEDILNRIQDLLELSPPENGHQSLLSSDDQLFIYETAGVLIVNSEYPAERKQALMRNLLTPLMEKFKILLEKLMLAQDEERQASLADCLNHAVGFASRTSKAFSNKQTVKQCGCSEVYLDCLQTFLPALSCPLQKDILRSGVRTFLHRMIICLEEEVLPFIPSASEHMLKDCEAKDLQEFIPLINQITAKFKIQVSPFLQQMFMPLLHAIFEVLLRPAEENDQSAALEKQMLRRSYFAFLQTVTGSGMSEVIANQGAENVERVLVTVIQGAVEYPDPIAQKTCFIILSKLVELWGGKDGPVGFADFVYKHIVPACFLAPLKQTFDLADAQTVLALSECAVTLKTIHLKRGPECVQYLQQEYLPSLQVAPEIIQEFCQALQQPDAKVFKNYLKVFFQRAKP", "UniProt Q9UGR2": "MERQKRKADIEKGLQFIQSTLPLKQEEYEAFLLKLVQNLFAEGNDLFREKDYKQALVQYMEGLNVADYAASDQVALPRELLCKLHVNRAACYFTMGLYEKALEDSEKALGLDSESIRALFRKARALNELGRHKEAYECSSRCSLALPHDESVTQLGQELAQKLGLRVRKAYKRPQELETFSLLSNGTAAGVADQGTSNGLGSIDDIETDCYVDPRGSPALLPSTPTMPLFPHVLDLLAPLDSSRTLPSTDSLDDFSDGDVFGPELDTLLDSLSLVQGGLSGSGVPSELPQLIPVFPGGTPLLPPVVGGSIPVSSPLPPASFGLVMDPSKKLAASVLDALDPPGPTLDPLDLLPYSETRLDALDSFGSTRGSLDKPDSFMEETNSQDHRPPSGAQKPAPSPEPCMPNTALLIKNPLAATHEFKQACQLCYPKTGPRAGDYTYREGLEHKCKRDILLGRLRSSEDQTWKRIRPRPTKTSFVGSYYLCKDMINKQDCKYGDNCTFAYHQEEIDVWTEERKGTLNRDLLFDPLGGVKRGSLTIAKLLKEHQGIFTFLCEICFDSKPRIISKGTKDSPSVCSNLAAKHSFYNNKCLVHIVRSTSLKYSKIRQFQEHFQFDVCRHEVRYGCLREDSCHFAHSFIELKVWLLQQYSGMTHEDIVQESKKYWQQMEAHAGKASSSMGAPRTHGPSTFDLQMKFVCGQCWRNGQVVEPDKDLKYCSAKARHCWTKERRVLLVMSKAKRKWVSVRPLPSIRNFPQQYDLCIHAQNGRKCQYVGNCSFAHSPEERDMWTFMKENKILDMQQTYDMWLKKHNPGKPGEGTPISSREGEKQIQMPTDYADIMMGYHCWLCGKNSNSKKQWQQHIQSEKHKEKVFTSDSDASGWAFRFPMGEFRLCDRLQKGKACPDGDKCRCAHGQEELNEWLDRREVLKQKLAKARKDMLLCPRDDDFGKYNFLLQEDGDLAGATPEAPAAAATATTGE"},
  "source": "the supplement of paper PMC12067093",
  "about": "“Discovery and optimisation of a covalent ligand for TRIM25 and its application to targeted protein ubiquitination” (Chemical Science, 2025)",
  "key": {"[1]": {"molecular_target": "XPOT_O43592_877_HIVPACFLAPLK (UniProt O43592)", "assay": "probe-labelled cysteine peptide fold change vs DMSO (competition) (log2 fold change); higher = less target engagement (more negative = stronger competition)", "conditions": "THP-1, incubation time: 4 h"}, "[2]": {"molecular_target": "ZC3H7B_Q9UGR2_590_CLVHIVR (UniProt Q9UGR2)", "assay": "probe-labelled cysteine peptide fold change vs DMSO (competition) (log2 fold change); higher = less target engagement (more negative = stronger competition)", "conditions": "THP-1, incubation time: 4 h"}},
  "note": "The list shows a part of the results.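 Further: competitive chemoproteomic profiling in live THP-1 cells with an iodoacetamide desthiobiotin (IA-DTB) probe, comparing probe-labelled peptide intensities in compound-treated cells against DMSO-treated controls.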",
  "data": [
    {"smiles": "CC1Cc2ccccc2N1C(=O)C1CCCN(C(=O)CCl)C1", "note": "(mixture of isomers) [TRIM25 ligand 11 (diastereomer mixture)]", "values": [
      {"measurement": "probe-labelled cysteine peptide fold change", "setting": "[1]; 10 µM", "value": 0.0433},
      {"measurement": "probe-labelled cysteine peptide fold change", "setting": "[1]; 50 µM", "value": 0.0734},
      {"measurement": "probe-labelled cysteine peptide fold change", "setting": "[2]; 10 µM", "value": 0.0726},
      {"measurement": "probe-labelled cysteine peptide fold change", "setting": "[2]; 50 µM", "value": 0.112}
    ]}
  ]
}
